Literature values as cited in US9656951B2, “Polymorphs of CDDO ethyl ester and uses thereof” (Applied Pharmaceutical Science, Inc., priority 2012, dated 2017).
pIC50: −log10 of the molar value. Some of these results come from one statement about several compounds together. For at least one compound, name, drawing or mass did not settle the structure.

Test system: NO production
Details: Honda et al. (2000); read-out: IC50, inhibition of NO production; cited from earlier work

COC(=O)[C@]12CCC(C)(C)C[C@H]1[C@H]1C(=O)C=C3[C@@]4(C)C=C(C#N)C(=O)C(C)(C)[C@@H]4CC[C@@]3(C)[C@]1(C)CC2 [CDDO Methyl Ester, methyl 2-cyano-3,12-dioxoIeana-1,9(11)-dien-28-oate, reference compound]
pIC50: > 9.00

CC1(C)CC[C@]2(C(=O)O)CC[C@]3(C)[C@H](C(=O)C=C4[C@@]5(C)C=C(C#N)C(=O)C(C)(C)[C@@H]5CC[C@]43C)[C@@H]2C1 [CDDO, 2-cyano-3,12-dioxoleana-1,9(11)-dien-28-oate]
pIC50: > 9.00
